Reference: article PMC7239482

Columns and labels:
[1] = biological target: GST-NCK-1 (C. elegans); assay: pull-down; GST fusion on glutathione sepharose 4B beads; in vitro translated HA-tagged protein (15 μL TNT mix in 700 μL binding buffer) bound at 4°C overnight; washes in 50 mM Tris pH 8.0, 300 mM NaCl, 0.2% NP-40, 1 mM DTT; anti-HA blot; only the target purified
[2] = biological target: GST-EHBP-1 (C. elegans); assay: as above

binding [1]: binds | binding [2]: no binding
B1: HA-DYN-1 (protein, UniProt P39055-2 1-838)
chain: MSWQNQGMQALIPVINRVQDAFSQLGTSVSFELPQIAVVGGQSAGKSSVLENFVGKDFLPRGSGIVTRRPLILQLIQDRNEYAEFLHKKGHRFVDFDAVRKEIEDETDRVTGQNKGISPHPINLRVFSPNVLNLTLIDLPGLTKVPVGDQPADIEQQIRDMILTFINRETCLILAVTPANSDLATSDALKLAKEVDPQGLRTIGVLTKLDLMDEGTDAREILENKLFTLRRGYVGVVNRGQKDIVGRKDIRAALDAERKFFISHPSYRHMADRLGTSYLQHTLNQQLTNHIRDTLPTLRDSLQKKMFAMEKDVAEYKNYQPNDPGRKTKALLQMVTQFNADIERSIEGSSAKLVSTNELSGGARINRLFHERFPFEIVKMEIDEKEMRKEIQYAIRNIHGIRVGLFTPDMAFEAIAKKQITRLKEPSLKCVDLVVNELANVIRQCADTMARYPRLRDELERIVVSHMREREQIAKQQIGLIVDYELAYMNTNHEDFIGFSNAEAKASQGQSAKKNLGNQVIRKGWLSLSNVSFVRGSKDNWFVLMSDSLSWYKDDEEKEKKYMLPLDGVKLKDIEGGFMSRNHKFALFYPDGKNIYKDYKQLELGCTNLDEIDAWKASFLRAGVYPEKQKAQEDESQQEMEDTSIDPQLERQVETIRNLVDSYMRIITKTIKDLVPKAVMHLIVNQTGEFMKDELLAHLYQCGDTDALMEESQIEAQKREEMLRMYHACKEALRIISEVNMSTLGDQPPPLPMSDYRPHPSGPSPVPRPAPAPPGGRQAPMPPRGGPGAPPPPGMRPPPGAPGGGGGMYPPLIPTRVPTPSNGAPEIPARPQVPKRPF

These are yes or no findings as the source states them, for the method shown. Binding seen in cells or lysates may run through a third protein. For some assays here: Binding calls can cover weak binding; strength is not graded here. Where a sequence is shown, tags or fusion partners need not be part of it.
